Data on three sequences can be found in publication PMC10874430.

For data set [1], the system named is MBP-MIB2 (SPATULA homolog, bHLH) (Solanum lycopersicum). The data set can be described thus: EMSA. The following applies: poly(dI-dC); EMSA 20 uL: 1 ug protein, 4 uL biotin probe (100 pmol), 2 uL LightShift kit binding buffer, 1 uL poly(dI-dC); temperature not stated; recombinant protein; protein details: MBP, 6xHis (MBP-pMCSG7); label: 5' biotin on both strands.

The test system is the same in data set [2]. As to the kind of experiment: competition with a labelled probe. Conditions: unlabeled competitor attenuates binding to N1, poly(dI-dC); EMSA 20 uL: 1 ug protein, 4 uL biotin probe (100 pmol), 2 uL LightShift kit binding buffer, 1 uL poly(dI-dC); temperature not stated; recombinant protein; protein details: MBP, 6xHis (MBP-pMCSG7). A general note: In EMSA bound probe runs differently from free probe, usually more slowly.

Construct, isoform or probe ends are uncertain for at least one entry. For part of these data: A negative result means that nothing was seen under these conditions.

In the case of “CCAAGTGGGGAGAGAATCCACAGGTGACACGTGGAGAGAAGTTAATGGG (double strand) [SlCOL1 promoter G-box probe (XP7276/XP7277)]”, the binding result in data set [1] is recorded as “binds”. On to “CCAAGTGGGGAGAGAATCCACAGGTGAGAGAGAAGTTAATGGG (double strand) [SlCOL1 mutant G-box probe (XP7280/XP7281), CACGTG deleted]”, for which the binding result in data set [1] is given as “no binding”. As to “CCAAGTGGGGAGAGAATCCACAGGTGACACGTGGAGAGAAGTTAATGGG (double strand) [SlCOL1 promoter G-box unlabeled competitor (XP7278/XP7279)]”, the binding result in data set [2] is recorded as “binds”.
